Experimental data from the supplement of paper PMC10398353.
Counter-ions that a name gives are not always drawn. ± gives the standard deviation of the averaged measurements. The list shows a part of the results. This is a noisy data set.

Test system: Salmonella enterica serovar Typhimurium ST313 D23580
Test: normalized bacterial growth (OD600 20 h minus 0 h, interquartile-mean normalized) (fraction of plate interquartile mean); higher = more bacterial growth (less inhibition)
Conditions: LPM (pH 5.8, low phosphate, low Mg2+), concentration: 10 µM, temperature: 37 °C

Structure (SMILES)	normalized bacterial growth
CCOC(=O)c1ncn2c1[C@@H]1CCCN1C(=O)c1cc(OC)ccc1-2	1.11
CCC1(C2=NCCN2)Cc2ccccc2O1 (centres undefined) [Efaroxan hydrochloride]	1.08
CC[C@@H](CO)NC(=O)[C@@H]1C=C2c3cccc4[nH]cc(c34)C[C@H]2N(C)C1 [Methylergonovine maleate]	1.01
CC[C@@H](CO)NC(=O)[C@@H]1C=C2c3cccc4[nH]cc(c34)C[C@H]2N(C)C1	0.821
C/C(=C/C=C/[C@@H](C)C(=O)O)[C@H]1CN[C@H](C(=O)O)[C@H]1CC(=O)O	1.15
COc1ccc2c(c1OC)C(=O)O[C@@H]2[C@H]1c2cc3c(cc2CCN1C)OCO3 [Hydrastine hydrochloride]	0.893
O=[N+]([O-])c1ccc(O[C@@H]2O[C@H](CO)[C@@H](O)[C@H](O)[C@H]2F)c([N+](=O)[O-])c1 ["2,4-Dinitrophenyl 2-fluoro-2-deoxy-beta-D-glucopyranoside"]	1.25
C[N+]12CC[C@@]34c5ccccc5N5C(=O)C[C@@H]6OCC=C(C1)[C@H](C[C@@H]32)[C@@H]6[C@H]54 (some centres undefined)	1.11
O=C(O)c1nn(Cc2ccc(Cl)cc2Cl)c2ccccc12 [Lonidamine]	0.949
CC(C)(C)c1cc(C=C(C#N)C#N)cc(C(C)(C)C)c1O [Tyrphostin A9]	0.975
CN1[C@@H]2CC[C@H]1C[C@@H](OC(=O)c1cc(Cl)cc(Cl)c1)C2 ["3-Tropanyl-3,5-dichlorobenzoate"]	0.932
C[C@@H]1C[C@@H]([C@H](O)CC2CC(=O)NC(=O)C2)C(=O)[C@@H](C)C1	0.542
COc1cc2c(cc1O)CCN[C@@H]2C	1.14 ± 0.056
O=C(NC(=O)c1c(F)cccc1F)Nc1ccc(Cl)cc1	1.29
c1ccc2c(c1)OCC(C1=NCCN1)O2 (centres undefined) [Idazoxan hydrochloride]	0.822
CC(C)Nc1nc(Cl)nc(NC(C)C)n1	0.905
N#Cc1c(Cl)c(Cl)c(Cl)c(C#N)c1Cl	1.02
C=C1C/C(=C/C)C(=O)O[C@@H]2CCN3CC=C(COC(=O)[C@]1(C)O)[C@H]23	0.966
O=S1OCC2C(CO1)C1(Cl)C(Cl)=C(Cl)C2(Cl)C1(Cl)Cl (centres undefined)	1.25
CCCN(CCC)[C@H]1CCc2c(F)ccc(O)c2C1 [S(-)-UH-301 hydrochloride]	1.21
COc1ccc(CC2NCCc3cc(OC)c(OC)cc32)cc1OC (centres undefined)	1.06
CCCCCC[C@H]1C(=O)O[C@H](C)[C@H](NC(=O)c2cccc(NC=O)c2O)C(=O)O[C@@H](C)[C@@H]1OC(=O)CC(C)C [Antimycin A]	0.792
COc1cc2c(c3oc4cccc(O)c4c(=O)c13)[C@@H]1C=CO[C@@H]1O2	0.963
CC[N+]1(C)CCCC(OC(=O)C(O)(c2ccccc2)c2ccccc2)C1 (centres undefined)	0.995
CC1=C2C(=CO[C@H](C)[C@H]2C)C(O)=C(C(=O)O)C1=O	0.95 ± 0.11

3 entries picked at random from those above, as already listed:
Structure (SMILES)	normalized bacterial growth
CC[C@@H](CO)NC(=O)[C@@H]1C=C2c3cccc4[nH]cc(c34)C[C@H]2N(C)C1 [Methylergonovine maleate]	1.01
CN1[C@@H]2CC[C@H]1C[C@@H](OC(=O)c1cc(Cl)cc(Cl)c1)C2 ["3-Tropanyl-3,5-dichlorobenzoate"]	0.932
CCCCCC[C@H]1C(=O)O[C@H](C)[C@H](NC(=O)c2cccc(NC=O)c2O)C(=O)O[C@@H](C)[C@@H]1OC(=O)CC(C)C [Antimycin A]	0.792

(list continues)

Structure (SMILES)	normalized bacterial growth
C[C@]12CC[C@@H](O)C[C@@H]1CC[C@@H]1[C@@H]2CC[C@]2(C)[C@@H](C(=O)CO)CC[C@@H]12 ["3-alpha,21-Dihydroxy-5-alpha-pregnan-20-one"]	0.736
CC1C=CC=CCCC=CC=CC=CC=CC(OC2OC(C)C(O)C(N)C2O)CC2OC(O)(CC(O)C(O)CCC(O)CC(O)CC(O)CC(=O)OC(C)C(C)C1O)CC(O)C2C(=O)O (centres undefined)	1.33
COc1ccc2c(c1OC)CN1CCc3cc4c(cc3C1C2)OCO4 (centres undefined) ["(d,l)-Tetrahydroberberine"]	0.843
CC(=O)O[C@H]1CC[C@@]2(C)[C@H](CC[C@@H]3[C@@H]2CC[C@]2(C)[C@@H](C4=CC(=O)OC4)[C@@H](OC(C)=O)C[C@]32O)C1	0.838
C[C@H]1O[C@@H](O[C@H]2CC[C@]3(C=O)[C@H]4CC[C@]5(C)[C@@H](C6=CC(=O)OC6)CC[C@]5(O)[C@@H]4CC[C@]3(O)C2)C[C@H](O)[C@@H]1O [Helveticoside]	1.17
CC(N)C(O)c1ccc(O)c(O)c1 (single isomer, unassigned; (-)) [(-)-alpha-Methylnorepinephrine]	0.801
C[C@@H]1C[C@H](O)[C@@]2(O)[C@]13CC(=O)OC[C@@]2(C)[C@@](C)(O)C(=O)C3	1.48
COC1=CC(=O)O[C@@H](/C=C/c2ccc3c(c2)OCO3)C1	0.919
N#C[C@H](O[C@@H]1O[C@H](CO[C@@H]2O[C@H](CO)[C@@H](O)[C@H](O)[C@H]2O)[C@@H](O)[C@H](O)[C@H]1O)c1ccccc1	0.84
CC[C@@H](CO)NC(=O)[C@@H]1C=C2c3cccc4c3c(cn4C)C[C@H]2N(C)C1 [Methysergide maleate]	0.923
CC(C)C1CNC(C(=O)O)C1CC(=O)O (centres undefined) [Dihydrokainic acid]	1.12
COc1cc2c(c(OC)c1OC)-c1ccc(OC)c(=O)cc1[C@@H](NC(C)=O)CC2	0.96
COc1ccc2c(c1)[C@@]13CCCC[C@H]1[C@@H](C2)NCC3 [3-Methoxy-morphanin hydrochloride]	1.27
Cc1cc([C@@H]2CCCN2C)on1 [ABT-418 hydrochloride]	1.14
CC[C@H](C)/C=C(C)/C=C/C1=CC2=C(Cl)C(=O)[C@](C)(OC(C)=O)C(=O)C2=CO1	0.708
O=[N+]([O-])c1ncc[nH]1	0.893
CC(=O)O[C@H]1CC[C@@]2(C)C(=CC[C@@H]3[C@@H]2CC[C@]2(C)C(=O)CC[C@@H]32)C1 [Dehydroisoandosterone 3-acetate]	0.941
N#CC(C#N)=Cc1cc(O)c(O)c(O)c1 [Tyrphostin 25]	1.1
CN1C[C@H](CNC(=O)OCc2ccccc2)C[C@@H]2c3cccc4c3c(cn4C)C[C@H]21	0.797
CN1C[C@H](CNC(=O)OCc2ccccc2)C[C@@H]2c3cccc4c3c(cn4C)C[C@H]21 [Metergoline]	0.963
COC1=CC(=O)O[C@@H](/C=C/c2ccccc2)C1 [Kawain]	0.946
COC1=CC(=O)O[C@@H](/C=C/c2ccccc2)C1 (racemic)	1.1
Oc1ccc2c3c1O[C@H]1[C@@H](O)CC[C@@]4(O)[C@@H](C2)N(CC2CCC2)CC[C@]314 [Nalbuphine hydrochloride]	1.15
Oc1ccc2c3c1O[C@H]1[C@@H](O)CC[C@@]4(O)[C@@H](C2)N(CC2CCC2)CC[C@]314	1.25
